Measurements from US11247982B2, “NMDA receptor modulators, compositions comprising same and use of these compounds in the treatment of diseases involving the central nervous system” (ADPUERIVITAM, priority 2017, dated 2022).
Some results were stated once for a whole list of compounds, not compound by compound. For at least one compound, name, drawing or mass did not settle the structure.

Test system: NMDA receptors
Assay: Whole-cell patch-clamp of NMDA currents in cultured rat embryonic hippocampal neurons
Type: cell-based
Conditions: concentration of 10 μM; total NMDA currents of rat embryonic neurons
Procedure: Female Wistar rats in gestation with 17-day-old embryos (E17) were obtained from Janvier Labs. On the day of receipt of the animals, the rat is sacrificed and the embryos are dissected under sterile conditions to remove their brain, which is then micro-dissected in GBSS (Gey's balanced salt solution) medium to obtain the hippocampus from the two hemispheres, while discarding the meninges. The tissues harvested from at least five embryos are placed in 2 ml of DMEM medium (registered trademark) (Dulbecco's modified Eagle's medium—from Life Technologies) with 2% of fetal calf serum, 2 mM of glutamine, 0.1 mg/mL of penicillin-streptomycin antibiotic mixture (Life Technologies) and subjected to mechanical dissociation of the cells by passing through round-ended glass pipettes with an inside diameter decreasing from 0.5 to 0.2 mm. The cells are counted and 100 μl of suspension containing 25×10^3 cells are placed on a glass slide coated with polylysine (poly-D-lysine hydrobromide from 75 to 150 kDa, from Sigma) of Ø 12 mm, in 12-well culture plates and incubated for 2 hours at 37° C. under an atmosphere containing 5% of CO2 to allow cell adhesion. […] The cultures are monitored by phase-contrast microscopy: the extension of the neurites and of the synaptic connections is observed for the neurons, which represent the majority of the cells, while a few astrocytes are also present. […]

Structure (SMILES)	antagonistic effect, of the maximum current amplitude
Cc1ccc2[nH]c(=O)c(C3=NN(C(=O)CCC(=O)O)C(c4ccc(Br)cc4)C3)c(-c3ccccc3)c2c1 (centres unmarked) [DQP1105, reference compound]	more than −20%
O=C(O)[C@H]1NCCN(C(=O)c2ccc3ccc4ccccc4c3c2)[C@H]1C(=O)O [UBP141, reference compound]	more than −20%
